Test results taken from US20210198329A1 (PASTEUR INSTITUTE OF IRAN, published 2021).
No constants are given. Whether binding was seen depends on the method and setting. Some results given as binding are weak or reduced against the parent protein; the word gives no strength.

The chains behind the UniProt entries cited, without tags or fusion partners. Residues count along the entry.
UniProt O75581, residues 20-1370: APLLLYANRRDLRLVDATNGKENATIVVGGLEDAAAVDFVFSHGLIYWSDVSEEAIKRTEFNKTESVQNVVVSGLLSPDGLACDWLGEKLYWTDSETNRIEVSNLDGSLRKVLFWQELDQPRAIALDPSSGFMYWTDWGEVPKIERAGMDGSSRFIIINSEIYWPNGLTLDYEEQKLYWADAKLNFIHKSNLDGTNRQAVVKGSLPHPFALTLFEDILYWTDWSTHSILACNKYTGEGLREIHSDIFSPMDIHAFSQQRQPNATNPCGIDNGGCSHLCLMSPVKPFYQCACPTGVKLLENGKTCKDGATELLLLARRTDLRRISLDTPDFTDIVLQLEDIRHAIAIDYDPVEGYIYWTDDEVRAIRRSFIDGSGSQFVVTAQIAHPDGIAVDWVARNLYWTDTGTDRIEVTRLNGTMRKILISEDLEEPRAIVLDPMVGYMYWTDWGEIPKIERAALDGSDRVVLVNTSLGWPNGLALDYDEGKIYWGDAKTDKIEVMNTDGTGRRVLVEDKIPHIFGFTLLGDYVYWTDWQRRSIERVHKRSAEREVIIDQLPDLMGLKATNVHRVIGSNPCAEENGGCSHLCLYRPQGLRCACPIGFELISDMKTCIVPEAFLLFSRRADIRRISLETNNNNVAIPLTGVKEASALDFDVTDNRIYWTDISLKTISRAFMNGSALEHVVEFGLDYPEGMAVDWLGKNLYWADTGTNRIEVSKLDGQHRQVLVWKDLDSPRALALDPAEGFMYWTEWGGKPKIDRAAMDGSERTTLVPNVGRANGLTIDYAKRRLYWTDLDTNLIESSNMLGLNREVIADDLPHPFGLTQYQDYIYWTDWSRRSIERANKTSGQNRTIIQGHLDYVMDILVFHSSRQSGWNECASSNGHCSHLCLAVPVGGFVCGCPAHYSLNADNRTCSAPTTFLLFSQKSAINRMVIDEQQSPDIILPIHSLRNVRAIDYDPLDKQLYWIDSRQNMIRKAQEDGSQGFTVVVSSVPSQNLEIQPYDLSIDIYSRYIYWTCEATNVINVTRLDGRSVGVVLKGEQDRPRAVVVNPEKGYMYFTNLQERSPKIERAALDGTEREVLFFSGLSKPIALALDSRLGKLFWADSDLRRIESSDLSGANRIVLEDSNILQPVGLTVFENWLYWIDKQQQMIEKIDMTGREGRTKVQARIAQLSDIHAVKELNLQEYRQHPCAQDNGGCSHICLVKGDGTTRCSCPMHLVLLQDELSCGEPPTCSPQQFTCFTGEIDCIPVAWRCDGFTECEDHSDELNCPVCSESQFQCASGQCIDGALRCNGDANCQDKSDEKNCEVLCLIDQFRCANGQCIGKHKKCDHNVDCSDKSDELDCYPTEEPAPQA

Experiments:
[1] = biological target: low-density lipoprotein receptor-related protein 6 (LRP6) (UniProt O75581); assay: LSPR spectroscopy
[2] = biological target: low-density lipoprotein receptor-related protein 6 (LRP6) (UniProt O75581); assay: LSPR spectroscopy; peptide immobilised on nanoparticles as ligand, LRP6 added as analyte; x axis is the LRP6 concentration (M), axis broken twice

B1: pep-2 (SEQ ID NO: 2) (peptide)
peptide: QVCTKHRRKGSHGLEIFQRCY
notes: Held on nanoparticles as the ligand in the LSPR assay
In the case of B1, the binding [1] is reported as “binds” and the binding [2] is reported as “binds”.
